Where two headings read alike, the source gives them in different places. Results are given in words; binding and its absence hold for the method and conditions named. Binding seen in cells or lysates may run through a third protein. Here binding means that the protein was enriched with, or labelled near, the bait; the list need not be complete. Sequences can lack the tags named with a protein.
T1: Flag-PKCζ fusion protein (UniProt Q05513)
T1 sequence: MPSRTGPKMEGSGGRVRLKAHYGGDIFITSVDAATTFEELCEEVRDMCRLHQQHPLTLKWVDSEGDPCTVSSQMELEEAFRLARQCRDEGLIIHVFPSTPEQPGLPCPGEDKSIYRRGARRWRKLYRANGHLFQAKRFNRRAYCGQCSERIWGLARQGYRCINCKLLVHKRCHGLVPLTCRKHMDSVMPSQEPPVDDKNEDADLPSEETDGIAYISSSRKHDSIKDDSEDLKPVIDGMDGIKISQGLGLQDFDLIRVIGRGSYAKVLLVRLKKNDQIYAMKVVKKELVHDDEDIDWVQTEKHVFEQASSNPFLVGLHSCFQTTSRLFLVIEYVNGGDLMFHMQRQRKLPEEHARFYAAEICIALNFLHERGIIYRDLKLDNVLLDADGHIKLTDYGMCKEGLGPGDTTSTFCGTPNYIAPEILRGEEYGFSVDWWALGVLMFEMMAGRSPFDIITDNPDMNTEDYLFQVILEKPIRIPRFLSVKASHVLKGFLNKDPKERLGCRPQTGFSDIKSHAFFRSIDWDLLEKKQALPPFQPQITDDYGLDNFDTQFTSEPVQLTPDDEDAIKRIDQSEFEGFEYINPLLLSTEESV

Chains of the proteins cited; added tags and fusions are not shown. Residues count along the entry.
UniProt Q07021, residues 74-282: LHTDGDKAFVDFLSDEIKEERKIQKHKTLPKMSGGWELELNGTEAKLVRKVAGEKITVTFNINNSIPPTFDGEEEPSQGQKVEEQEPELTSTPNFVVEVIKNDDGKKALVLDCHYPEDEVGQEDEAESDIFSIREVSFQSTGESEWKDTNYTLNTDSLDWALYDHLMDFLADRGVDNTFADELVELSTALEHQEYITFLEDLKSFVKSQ
UniProt P67775: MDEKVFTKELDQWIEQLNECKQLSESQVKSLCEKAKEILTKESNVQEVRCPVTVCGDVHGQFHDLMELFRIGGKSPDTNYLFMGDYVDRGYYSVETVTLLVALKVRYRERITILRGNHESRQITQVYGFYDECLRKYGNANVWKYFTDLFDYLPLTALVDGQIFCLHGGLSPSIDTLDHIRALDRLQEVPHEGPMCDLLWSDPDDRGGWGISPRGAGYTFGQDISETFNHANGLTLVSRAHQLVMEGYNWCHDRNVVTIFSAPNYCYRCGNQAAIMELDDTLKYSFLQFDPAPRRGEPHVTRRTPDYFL

B1: LLGL1 (protein, UniProt Q15334 1-1064)
chain: MMKFRFRRQGADPQREKLKQELFAFNKTVEHGFPNQPSALAFDPELRIMAIGTRSGAVKIYGAPGVEFTGLHRDAATVTQMHFLTGQGRLLSLLDDSSLHLWEIVHHNGCAHLEEALSFQLPSRPGFDGASAPLSLTRVTVVLLVAASDIAALGTEGSSVFFLDVTTLTLLEGQTLAPGEVLRSVPDDYRCGKALGPVESLQGHLRDPTKILIGYSRGLLVIWNQASQCVDHIFLGNQQLESLCWGRDSSTVVSSHSDGSYAVWSVDAGSFPTLQPTVATTPYGPFPCKAINKILWRNCESGGHFIIFSGGMPRASYGDRHCVSVLRAETLVTLDFTSRIIDFFTVHSTRPEDEFDDPQALAVLLEEELVVLDLQTPGWPAVPAPYLAPLHSSAITCSAHVASVPAKLWARIVSAGEQQSPQPVSSALSWPITGGRNLAQEPSQRGLLLTGHEDGTVRFWDASGVALRPLYKLSTAGLFQTDCEHADSLAQAAEDDWPPFRKVGCFDPYSDDPRLGVQKVALCKYTAQMVVAGTAGQVLVLELSDVPVEQAVSVAIIDLLQDREGFTWKGHERLSPRTGPLPWPAGFQPRVLVQCLPPAAVTAVTLHTEWSLVAFGTSHGFGLFDYQRKSPVLARCTLHPNDSLAMEGPLSRVKSLKKSLRQSFRRIRKSRVSGKKRAANASSKLQEANAQLAEQACPHDVEMTPVQRRIEPRSADDSLSGVVRCLYFADTFLRDGAHHGPTMWAGTNSGSVFAYALEVPAAAVGGEKRPEQAVEAVLGKEVQLMHRAPVVAIAVLDGRGRPLPEPYEASRDLAQAPDMQGGHAVLIASEEQFKVFTLPKVSAKTKFKLTAHEGCRVRKVALATFASVACEDYAETCLACLTNLGDVHVFSVPGLRPQVHYSCIRKEDISGIASCVFTRHGQGFYLISPSEFERFSLSARNITEPLCSLDINWPRDATQASYRIRESPKLSQANGTPSILLAPQSLDGSPDPAHSMGPDTPEPPEAALSPMSIDSATSADTTLDTTGDVTVEDVKDFLGSSEESEKNLRNLAEDEAHACAILIK

Experiments:
[1] = biological target: T1, Flag-PKCζ fusion protein; assay: affinity purification with mass spectrometry; anti-Flag antibody conjugated agarose beads on precleared extracts of Flag-PKCζ stable MDA-MB-231 cells (serum starved 12 h; lysis buffer 40 mM Tris, 120 mM NaCl, 1% Triton X-100, 1 mM NaF, 1 mM Na3VO4); LC-MS/MS; hits filtered with the CRAPome database
[2] = biological target: T1, Flag-PKCζ fusion protein; assay: as above; remark: listed apart in the source

Row | Molecule | binding [1] | binding [2]
1 | complement component C1qbinding protein (C1QBP) (from UniProt Q07021 74-282) | binds | 
2 | protein phosphatase 2 catalytic subunit alpha (PPP2CA) (from UniProt P67775 1-309) (enzyme) | binds | 
3 | B1 |  | binds

Source: publication PMC5828088
